For at least one compound, name, drawing or mass did not settle the structure.
Tested on: fibrosis
Experiment: Masson trichrome stain of lung tissue sections, bleomycin mice
Type: in vivo

CCC(C)(C)C(=O)O[C@H]1C[C@@H](C)C=C2C=C[C@H](C)[C@H](CC[C@@H]3C[C@@H](O)CC(=O)O3)[C@H]21 [Simvastatin, reference compound]
Fibrosis aggregation, Masson trichrome: still partial fibrosis
